Assay results as given in PMC6447360.
These are yes or no findings as the source states them, for the method shown. Some results given as binding are weak or reduced against the parent protein; the word gives no strength.

Protein sequences, listed by entry. Tags and fused reporters are not part of them.
UniProt P21728: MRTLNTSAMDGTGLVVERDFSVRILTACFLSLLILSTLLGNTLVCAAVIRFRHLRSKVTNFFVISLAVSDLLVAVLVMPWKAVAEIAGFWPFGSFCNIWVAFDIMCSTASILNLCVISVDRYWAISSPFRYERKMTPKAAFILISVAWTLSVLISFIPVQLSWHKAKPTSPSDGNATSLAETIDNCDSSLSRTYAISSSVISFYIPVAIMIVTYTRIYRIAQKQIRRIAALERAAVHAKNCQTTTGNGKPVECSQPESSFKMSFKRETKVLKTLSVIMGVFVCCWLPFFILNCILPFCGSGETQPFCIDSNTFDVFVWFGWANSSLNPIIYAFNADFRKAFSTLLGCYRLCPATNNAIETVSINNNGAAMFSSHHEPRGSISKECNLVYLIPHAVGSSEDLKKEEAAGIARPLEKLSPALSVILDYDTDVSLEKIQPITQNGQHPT
UniProt P32121: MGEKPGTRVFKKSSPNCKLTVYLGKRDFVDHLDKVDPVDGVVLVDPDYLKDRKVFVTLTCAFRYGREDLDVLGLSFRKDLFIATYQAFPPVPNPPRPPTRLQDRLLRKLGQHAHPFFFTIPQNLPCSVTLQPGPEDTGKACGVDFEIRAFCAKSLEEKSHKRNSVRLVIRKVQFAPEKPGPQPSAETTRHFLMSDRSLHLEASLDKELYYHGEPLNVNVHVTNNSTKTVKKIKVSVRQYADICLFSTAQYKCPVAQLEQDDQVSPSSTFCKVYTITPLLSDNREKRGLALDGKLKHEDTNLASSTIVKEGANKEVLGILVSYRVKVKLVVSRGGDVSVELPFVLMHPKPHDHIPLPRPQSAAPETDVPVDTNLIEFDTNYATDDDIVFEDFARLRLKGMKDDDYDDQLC

Legend:
[1] = biological target: DRD1-NNES-eLOV-TEVcs-Flag-Gal4-V5 (UniProt P21728); test: SPARK transcriptional reporter (PPI-dependent TEVp cleavage of LOV-caged TEVcs releases Gal4; UAS-Citrine imaging); HEK293T transiently transfected; agonist added (isoetharine for β2AR, vasopressin for AVPR2, dopamine for DRD1) together with 10 µM furimazine or blue light (5-15 min; DRD1 …; continuous in Fig. 3F-G); Citrine imaged ~8 hr later, Citrine/HA intensity ratio of HA-positive cells
[2] = biological target: DRD1-NNES-eLOV-TEVcs-Flag-Gal4-V5 (UniProt P21728); test: SPARK transcriptional reporter (PPI-dependent TEVp cleavage of LOV-caged TEVcs releases Gal4; UAS-FLuc luminescence on a plate reader); HEK293T transiently transfected (Lipofectamine), re-plated in 96-well plates; 10 µM isoetharine with 10 µM furimazine or blue light for 5-20 min; in the drug screen 5 µM compound (isoetharine, dopamine spike-ins, 92 drugs) with 10 µM furimazine for 1 hr; FLuc read ~8-9 hr later

“NanoLuc-15aa linker-βarrestin2-HA-GS linker-TEVp (from UniProt P32121 1-409)” was tested, and the binding [1] was “binds” and the binding [2] was “binds”.
